According to the supplement of paper PMC10849652:
Some of the results follow.

Chains of the proteins cited; added tags and fusions are not shown. Lines headed by an entry give the natural chain unless they say otherwise; changes in a name come on top.
UniProt Q9NQZ2: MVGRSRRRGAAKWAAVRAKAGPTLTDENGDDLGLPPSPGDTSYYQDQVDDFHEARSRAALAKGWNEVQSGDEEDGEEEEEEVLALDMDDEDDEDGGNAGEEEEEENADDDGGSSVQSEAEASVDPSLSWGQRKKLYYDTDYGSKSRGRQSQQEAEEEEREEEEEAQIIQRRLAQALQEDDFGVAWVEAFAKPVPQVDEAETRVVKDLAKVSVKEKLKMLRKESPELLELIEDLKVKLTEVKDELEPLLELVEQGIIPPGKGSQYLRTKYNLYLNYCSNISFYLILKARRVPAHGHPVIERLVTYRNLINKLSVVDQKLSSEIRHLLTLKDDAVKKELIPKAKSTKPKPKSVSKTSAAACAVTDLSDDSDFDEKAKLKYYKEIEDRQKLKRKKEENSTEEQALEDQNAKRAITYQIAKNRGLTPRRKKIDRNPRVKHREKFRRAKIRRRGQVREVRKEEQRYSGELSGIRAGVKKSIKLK
UniProt A6NIH7: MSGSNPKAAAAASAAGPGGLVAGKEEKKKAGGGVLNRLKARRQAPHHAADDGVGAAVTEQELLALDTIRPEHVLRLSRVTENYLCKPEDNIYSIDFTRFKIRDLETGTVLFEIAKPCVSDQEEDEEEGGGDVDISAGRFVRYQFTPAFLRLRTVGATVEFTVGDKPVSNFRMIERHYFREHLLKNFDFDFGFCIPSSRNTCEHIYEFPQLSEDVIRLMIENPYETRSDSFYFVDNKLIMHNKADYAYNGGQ
UniProt Q9BRU9: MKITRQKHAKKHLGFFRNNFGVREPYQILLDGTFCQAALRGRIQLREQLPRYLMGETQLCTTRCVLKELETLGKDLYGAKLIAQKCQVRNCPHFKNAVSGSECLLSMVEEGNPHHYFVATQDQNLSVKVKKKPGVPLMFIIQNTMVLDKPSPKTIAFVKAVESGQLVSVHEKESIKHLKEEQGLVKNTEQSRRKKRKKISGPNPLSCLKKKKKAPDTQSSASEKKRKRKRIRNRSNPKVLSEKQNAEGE
UniProt Q14146: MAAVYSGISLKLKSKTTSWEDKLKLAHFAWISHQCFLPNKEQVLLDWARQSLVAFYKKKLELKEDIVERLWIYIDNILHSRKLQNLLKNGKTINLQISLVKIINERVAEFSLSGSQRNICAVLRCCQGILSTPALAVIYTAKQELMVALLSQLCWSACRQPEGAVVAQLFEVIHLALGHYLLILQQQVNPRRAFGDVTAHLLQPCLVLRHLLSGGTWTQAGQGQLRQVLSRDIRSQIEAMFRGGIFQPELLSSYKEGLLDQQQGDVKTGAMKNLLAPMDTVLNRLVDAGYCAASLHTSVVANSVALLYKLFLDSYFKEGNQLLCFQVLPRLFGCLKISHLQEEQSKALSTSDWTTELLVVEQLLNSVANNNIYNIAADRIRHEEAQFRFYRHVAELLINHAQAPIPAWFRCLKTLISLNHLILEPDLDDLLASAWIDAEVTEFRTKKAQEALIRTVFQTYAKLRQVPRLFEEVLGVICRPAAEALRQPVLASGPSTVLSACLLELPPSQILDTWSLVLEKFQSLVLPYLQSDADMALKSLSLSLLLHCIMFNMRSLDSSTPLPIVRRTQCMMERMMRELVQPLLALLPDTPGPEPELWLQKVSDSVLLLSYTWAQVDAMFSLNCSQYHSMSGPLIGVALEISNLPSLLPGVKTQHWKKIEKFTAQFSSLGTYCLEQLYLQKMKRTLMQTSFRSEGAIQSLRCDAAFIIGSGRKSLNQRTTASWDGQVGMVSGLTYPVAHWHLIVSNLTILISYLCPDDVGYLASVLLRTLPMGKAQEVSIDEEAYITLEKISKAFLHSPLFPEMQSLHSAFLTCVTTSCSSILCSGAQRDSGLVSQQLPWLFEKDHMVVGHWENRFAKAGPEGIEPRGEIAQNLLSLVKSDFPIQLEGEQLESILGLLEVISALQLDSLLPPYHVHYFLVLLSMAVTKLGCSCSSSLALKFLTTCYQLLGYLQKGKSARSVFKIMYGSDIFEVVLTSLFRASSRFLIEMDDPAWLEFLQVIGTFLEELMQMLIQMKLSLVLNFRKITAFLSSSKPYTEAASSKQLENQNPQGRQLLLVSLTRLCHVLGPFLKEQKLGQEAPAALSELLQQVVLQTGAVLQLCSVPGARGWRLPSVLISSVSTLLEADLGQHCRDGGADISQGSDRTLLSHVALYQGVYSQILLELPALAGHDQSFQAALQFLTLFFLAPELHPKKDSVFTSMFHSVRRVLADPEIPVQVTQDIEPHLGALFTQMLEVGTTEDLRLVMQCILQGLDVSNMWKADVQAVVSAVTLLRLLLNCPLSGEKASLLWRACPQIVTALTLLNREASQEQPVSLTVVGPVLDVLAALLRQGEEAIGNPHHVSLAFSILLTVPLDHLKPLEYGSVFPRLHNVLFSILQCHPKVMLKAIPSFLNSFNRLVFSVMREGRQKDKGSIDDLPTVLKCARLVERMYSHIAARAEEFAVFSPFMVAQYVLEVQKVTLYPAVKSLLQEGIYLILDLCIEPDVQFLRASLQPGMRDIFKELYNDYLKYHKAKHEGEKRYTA
UniProt Q68DE3: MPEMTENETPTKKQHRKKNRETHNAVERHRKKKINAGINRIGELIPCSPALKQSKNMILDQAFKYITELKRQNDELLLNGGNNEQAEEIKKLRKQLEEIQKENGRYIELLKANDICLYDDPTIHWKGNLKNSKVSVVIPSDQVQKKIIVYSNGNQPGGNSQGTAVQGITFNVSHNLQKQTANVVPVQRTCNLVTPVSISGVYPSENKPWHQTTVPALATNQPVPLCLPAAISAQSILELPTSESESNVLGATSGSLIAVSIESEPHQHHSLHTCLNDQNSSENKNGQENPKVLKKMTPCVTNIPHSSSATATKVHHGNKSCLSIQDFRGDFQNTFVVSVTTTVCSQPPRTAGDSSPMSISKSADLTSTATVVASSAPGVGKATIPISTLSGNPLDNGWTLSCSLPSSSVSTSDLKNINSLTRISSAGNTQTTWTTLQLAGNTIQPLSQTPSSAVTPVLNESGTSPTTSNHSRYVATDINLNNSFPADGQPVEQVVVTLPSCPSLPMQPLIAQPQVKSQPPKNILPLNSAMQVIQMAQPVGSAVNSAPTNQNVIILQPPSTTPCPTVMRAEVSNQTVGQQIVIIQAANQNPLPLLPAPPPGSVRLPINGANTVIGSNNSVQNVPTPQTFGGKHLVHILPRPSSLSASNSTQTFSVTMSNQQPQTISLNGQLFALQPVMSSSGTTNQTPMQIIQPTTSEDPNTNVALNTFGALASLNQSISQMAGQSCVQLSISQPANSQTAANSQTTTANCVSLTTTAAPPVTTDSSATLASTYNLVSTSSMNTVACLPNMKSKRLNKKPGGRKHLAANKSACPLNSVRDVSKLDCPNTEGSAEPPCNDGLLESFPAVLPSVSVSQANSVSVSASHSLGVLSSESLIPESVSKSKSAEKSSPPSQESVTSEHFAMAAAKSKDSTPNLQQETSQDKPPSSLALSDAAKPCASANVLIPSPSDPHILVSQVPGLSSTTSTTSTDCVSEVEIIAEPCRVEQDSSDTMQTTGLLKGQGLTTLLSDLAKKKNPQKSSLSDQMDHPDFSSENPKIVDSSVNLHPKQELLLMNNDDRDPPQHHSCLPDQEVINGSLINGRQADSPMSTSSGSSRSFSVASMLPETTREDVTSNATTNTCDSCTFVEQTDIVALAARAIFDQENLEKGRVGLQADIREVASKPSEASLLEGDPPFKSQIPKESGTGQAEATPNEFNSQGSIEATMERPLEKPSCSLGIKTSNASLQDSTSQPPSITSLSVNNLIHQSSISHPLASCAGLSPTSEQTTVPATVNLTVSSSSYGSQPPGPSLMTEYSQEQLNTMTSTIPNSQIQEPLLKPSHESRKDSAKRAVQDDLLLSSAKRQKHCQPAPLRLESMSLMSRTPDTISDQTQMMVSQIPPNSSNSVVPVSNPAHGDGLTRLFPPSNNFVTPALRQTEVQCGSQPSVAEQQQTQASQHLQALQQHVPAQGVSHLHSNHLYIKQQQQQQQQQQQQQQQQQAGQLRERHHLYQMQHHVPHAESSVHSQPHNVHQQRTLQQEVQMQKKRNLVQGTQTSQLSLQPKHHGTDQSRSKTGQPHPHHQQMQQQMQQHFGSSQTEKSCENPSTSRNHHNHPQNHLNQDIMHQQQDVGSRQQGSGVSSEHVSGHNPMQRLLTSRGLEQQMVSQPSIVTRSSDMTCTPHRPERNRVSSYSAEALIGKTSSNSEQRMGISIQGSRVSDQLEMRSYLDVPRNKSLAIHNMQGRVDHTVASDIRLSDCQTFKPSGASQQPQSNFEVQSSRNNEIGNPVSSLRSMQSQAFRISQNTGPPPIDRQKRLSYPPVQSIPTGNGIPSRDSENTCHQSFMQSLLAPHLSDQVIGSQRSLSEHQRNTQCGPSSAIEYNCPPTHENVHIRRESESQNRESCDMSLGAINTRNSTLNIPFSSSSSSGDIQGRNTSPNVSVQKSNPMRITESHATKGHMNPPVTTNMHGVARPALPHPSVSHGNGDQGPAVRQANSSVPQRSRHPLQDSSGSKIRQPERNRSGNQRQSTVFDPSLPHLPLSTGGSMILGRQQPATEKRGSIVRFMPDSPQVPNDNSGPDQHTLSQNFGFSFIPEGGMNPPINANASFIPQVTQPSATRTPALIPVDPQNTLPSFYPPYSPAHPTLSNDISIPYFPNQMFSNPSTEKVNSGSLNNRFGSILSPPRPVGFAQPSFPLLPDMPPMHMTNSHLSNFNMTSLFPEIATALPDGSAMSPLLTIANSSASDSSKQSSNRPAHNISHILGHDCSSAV
UniProt Q9C0B0: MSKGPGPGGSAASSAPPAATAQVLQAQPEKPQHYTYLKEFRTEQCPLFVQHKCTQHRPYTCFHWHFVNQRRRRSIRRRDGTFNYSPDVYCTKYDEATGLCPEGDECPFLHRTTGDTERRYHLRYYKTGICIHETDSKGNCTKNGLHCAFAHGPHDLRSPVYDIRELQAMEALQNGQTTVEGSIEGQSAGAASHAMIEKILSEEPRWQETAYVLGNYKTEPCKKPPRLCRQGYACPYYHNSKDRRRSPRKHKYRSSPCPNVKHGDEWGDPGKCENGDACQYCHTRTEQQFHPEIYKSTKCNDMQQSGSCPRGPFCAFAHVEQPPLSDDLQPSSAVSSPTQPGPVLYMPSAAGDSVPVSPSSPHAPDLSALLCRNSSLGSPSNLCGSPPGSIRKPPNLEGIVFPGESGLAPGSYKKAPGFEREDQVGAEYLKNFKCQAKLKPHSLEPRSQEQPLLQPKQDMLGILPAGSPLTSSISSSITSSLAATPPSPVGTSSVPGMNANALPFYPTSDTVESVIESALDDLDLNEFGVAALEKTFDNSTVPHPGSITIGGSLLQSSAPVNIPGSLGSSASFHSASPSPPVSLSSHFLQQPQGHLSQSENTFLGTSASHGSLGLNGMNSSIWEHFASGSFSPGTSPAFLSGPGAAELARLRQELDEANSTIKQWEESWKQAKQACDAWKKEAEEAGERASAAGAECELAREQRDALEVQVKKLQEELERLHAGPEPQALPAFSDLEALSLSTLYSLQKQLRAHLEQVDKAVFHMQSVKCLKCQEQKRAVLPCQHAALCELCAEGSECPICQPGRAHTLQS
UniProt Q6UW78: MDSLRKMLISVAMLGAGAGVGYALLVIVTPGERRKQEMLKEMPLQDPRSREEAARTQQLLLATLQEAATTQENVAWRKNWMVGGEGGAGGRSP
UniProt Q9BQ65: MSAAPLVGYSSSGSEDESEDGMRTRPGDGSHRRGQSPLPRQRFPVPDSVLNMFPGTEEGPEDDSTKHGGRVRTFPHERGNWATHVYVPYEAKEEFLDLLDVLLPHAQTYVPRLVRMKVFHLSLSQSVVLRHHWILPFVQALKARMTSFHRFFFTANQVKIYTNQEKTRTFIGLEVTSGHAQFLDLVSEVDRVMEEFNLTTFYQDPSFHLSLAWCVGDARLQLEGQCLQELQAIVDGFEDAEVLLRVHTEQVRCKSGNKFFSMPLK

Legend:
Assay in all cases: log2 fold change, soluble protein after heating vs DMSO (PISA); higher = thermal stabilisation; K562 cells, 10 uM, 30 min; active = over 0.2 and 3.5 SD of the protein, either way, in both replicates (recomputed)
[1] = compound: CS(=O)(=O)c1ccc(-c2cnc(N)c(C(=O)Nc3ccccc3)n2)cc1
In short: (§1)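 Quantification of soluble protein used TMTpro 16plex LC-MS/MS, with channel sums equalised. Samples were the supernatant after 21,000xg for 90 min of pooled aliquots from K562 cells (2×10^6 cells/mL) treated with 10 μM compound for 30 min, heated for 3 min over 48°C-58°C, and extracted in PBS with 0.5% NP-40 at 4°C. Values, from duplicates, describe thermal stability against control samples on a log2 fold-change scale.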

[2] = compound: C[C@@H](Oc1cc(-c2cnn(C3CCNCC3)c2)cnc1N)c1c(Cl)ccc(F)c1Cl [crizotinib]
In short: as §1

[3] = compound: C[C@@H]1COCCN1C2=NC(=NC(=C2)C3(CC3)S(=O)(=O)C)C4=C5C=CNC5=CC=C4
In short: as §1

[4] = compound: C[C@H](C1=CC=C(C=C1)C(=O)NC2=C3C=CNC3=NC=C2)N
In short: as §1

[5] = compound: Cc1cc(Nc2cc(CN3CCOCC3)c3nc(C)c(Cc4ccc(Cl)cc4F)n3n2)n[nH]1 [gandotinib]
In short: as §1

[6] = compound: Cc1cc(SCc2sc(-c3ccc(C(F)(F)F)cc3)nc2C)ccc1OCC(=O)O
In short: as §1

[7] = compound: Cc1ccc(-n2nc(C(C)(C)C)cc2NC(=O)Nc2ccc(OCCN3CCOCC3)c3ccccc23)cc1 [doramapimod]
In short: as §1

[8] = compound: Cc1ccc(C(=O)N(CCCN)[C@@H](c2nc3cc(Cl)ccc3c(=O)n2Cc2ccccc2)C(C)C)cc1 [ispinesib]
In short: as §1

[9] = compound: C[C@H](Nc1ncnc2nc[nH]c12)c1cc2cccc(Cl)c2c(=O)n1-c1ccccc1 [duvelisib]
In short: as §1

[10] = compound: Cc1cc(Nc2cc(N3CCN(C)CC3)nc(Sc3ccc(NC(=O)C4CC4)cc3)n2)n[nH]1 [tozasertib]
In short: as §1

Target | log2 fold change [1] | log2 fold change [2] | log2 fold change [3] | log2 fold change [4] | log2 fold change [5] | log2 fold change [6] | log2 fold change [7] | log2 fold change [8] | log2 fold change [9] | log2 fold change [10]
UBE3D (UniProt Q7Z6J8) | inactive: 0.002 | inactive: 0.053 | inactive: 0.128 | inactive: -0.067 | inactive: -0.147 | inactive: -0.052 | inactive: -0.01 | inactive: -0.024 | – | –
UXT isoform 2 (UniProt Q9UBK9) | inactive: 0.063 | inactive: 0.056 | inactive: 0.184 | inactive: 0.006 | inactive: 0.255 | inactive: -0.034 | inactive: 0.017 | inactive: -0.035 | – | –
UBE4A isoform 2 (UniProt Q14139) | inactive: 0.036 | inactive: -0.275 | inactive: 0.069 | active: 0.29 | inactive: -0.076 | inactive: 0.117 | inactive: -0.023 | inactive: -0.172 | – | –
USP25 isoform 3 (UniProt Q9UHP3) | inactive: 0.042 | inactive: -0.003 | inactive: -0.017 | inactive: -0.062 | inactive: -0.024 | inactive: 0.021 | inactive: 0.007 | inactive: -0.025 | – | –
USO1 isoform 2 (UniProt O60763) | inactive: 0.001 | inactive: -0.031 | inactive: 0.05 | inactive: -0.068 | inactive: -0.062 | inactive: 0.052 | inactive: -0.019 | inactive: 0.012 | – | –
UQCR10 (UniProt Q9UDW1) | inactive: -0.036 | inactive: 0.079 | inactive: 0.071 | inactive: -0.043 | active: -0.403 | inactive: 0.013 | inactive: -0.025 | inactive: 0.095 | – | –
UTP3 (UniProt Q9NQZ2) | inactive: 0.015 | inactive: 0.061 | inactive: -0.494 | inactive: 0.363 | inactive: 0.17 | inactive: -0.04 | inactive: 0.099 | inactive: -0.144 | – | –
USF1 (UniProt P22415) | inactive: 0.08 | inactive: -0.043 | inactive: -0.017 | – | inactive: -0.035 | – | inactive: -0.098 | inactive: -0.031 | – | –
UTP18 (UniProt Q9Y5J1) | inactive: 0.051 | inactive: -0.044 | inactive: -0.115 | – | inactive: 0.076 | – | inactive: 0.281 | inactive: -0.031 | – | –
USP34 (UniProt Q70CQ2) | inactive: -0.049 | inactive: -0.142 | inactive: 0.046 | inactive: 0.051 | inactive: -0.131 | inactive: 0.118 | inactive: -0.006 | inactive: -0.007 | – | –
USP9X (UniProt Q93008) | inactive: -0.008 | inactive: -0.159 | inactive: -0.024 | inactive: 0.033 | inactive: -0.125 | inactive: 0.053 | inactive: 0.016 | inactive: -0.058 | – | –
USP46 (UniProt P62068) | inactive: 0.007 | inactive: -0.012 | inactive: 0.025 | – | – | – | inactive: 0.112 | – | – | –
UBE4B isoform 4 (UniProt O95155) | inactive: 0.016 | inactive: -0.013 | inactive: 0.012 | inactive: -0.015 | inactive: -0.048 | inactive: 0.019 | inactive: -0.048 | inactive: 0 | – | –
UFM1 isoform 2 (UniProt P61960) | inactive: -0.009 | – | inactive: -0.065 | inactive: -0.157 | inactive: -0.066 | inactive: 0.063 | – | – | – | –
UBIAD1 (UniProt Q9Y5Z9) | inactive: 0.107 | inactive: 0.024 | – | inactive: 0.001 | inactive: 0.069 | inactive: 0.004 | inactive: -0.1 | inactive: -0.117 | – | –
URM1 isoform 2 (UniProt Q9BTM9) | inactive: -0.097 | inactive: 0.039 | – | – | inactive: 0.164 | inactive: 0.029 | inactive: -0.004 | inactive: 0.102 | inactive: -0.043 | inactive: -0.083
UNC119B (UniProt A6NIH7) | inactive: 0.026 | inactive: -0.08 | – | inactive: 0.039 | inactive: 0.034 | inactive: -0.064 | inactive: 0.263 | active: 0.527 | – | –
UCHL1 (UniProt P09936) | – | – | – | – | inactive: -0.015 | – | – | – | – | –
UBTF (UniProt P17480) | inactive: 0 | inactive: 0.204 | – | inactive: 0.135 | inactive: -0.072 | – | inactive: 0.195 | inactive: -0.114 | – | –
VASN (UniProt Q6EMK4) | inactive: 0.069 | – | inactive: -0.141 | – | – | – | – | – | – | –
UTP20 (UniProt O75691) | – | – | inactive: -0.379 | – | – | – | – | – | – | –
UNC5B (UniProt Q8IZJ1) | – | – | inactive: -0.21 | – | – | inactive: 0.089 | – | – | inactive: 0.19 | inactive: 0.16
UMAD1 (UniProt C9J7I0) | – | inactive: 0.018 | – | inactive: -0.264 | inactive: 0.084 | inactive: -0.172 | inactive: 0.031 | inactive: 0.235 | inactive: 0.24 | inactive: 0.082
VAMP3 (UniProt Q15836) | – | inactive: 0.016 | inactive: -0.048 | inactive: -0.026 | – | – | inactive: 0.023 | – | – | inactive: -0.368
UBQLN3 (UniProt Q9H347) | – | inactive: 0.002 | inactive: 0.203 | inactive: 0.087 | inactive: -0.145 | inactive: 0.043 | inactive: -0.063 | inactive: 0.175 | inactive: 0.018 | inactive: -0.004
USP27X (UniProt A6NNY8) | – | – | inactive: 0.15 | inactive: -0.049 | – | inactive: -0.049 | – | inactive: 0.091 | inactive: -0.023 | inactive: 0.072
UBR1 (UniProt Q8IWV7) | inactive: 0.075 | – | inactive: 0.024 | inactive: 0.155 | inactive: 0.025 | inactive: -0.276 | – | – | inactive: 0.213 | –

Target | log2 fold change [1] | log2 fold change [2] | log2 fold change [3] | log2 fold change [4] | log2 fold change [5] | log2 fold change [6] | log2 fold change [7] | log2 fold change [8] | log2 fold change [9] | log2 fold change [10]
UTP23 (UniProt Q9BRU9) | – | – | – | inactive: 0.137 | – | inactive: 0.087 | – | – | inactive: -0.04 | –
VAV1 (UniProt P15498) | – | – | inactive: 0.016 | inactive: -0.078 | inactive: -0.186 | – | – | inactive: 0.049 | – | inactive: -0.185
USP16 (UniProt Q9Y5T5) | – | inactive: 0.045 | inactive: -0.349 | inactive: 0.35 | inactive: 0.065 | inactive: 0.045 | inactive: 0.247 | inactive: 0.149 | inactive: -0.159 | inactive: -0.331
UHRF1 isoform 2 (UniProt Q96T88) | – | – | – | – | – | – | – | – | – | inactive: -0.022
USP33 (UniProt Q8TEY7) | inactive: -0.067 | – | – | – | – | inactive: 0.184 | – | inactive: -0.023 | inactive: 0.027 | inactive: 0.035
USP13 (UniProt Q92995) | inactive: 0.086 | inactive: -0.004 | – | inactive: 0.108 | – | inactive: 0.039 | inactive: 0.009 | inactive: 0.196 | inactive: -0.015 | inactive: 0.007
URB2 (UniProt Q14146) | – | inactive: -0.582 | – | inactive: 0.078 | – | – | inactive: -0.172 | – | – | –
USF3 (UniProt Q68DE3) | inactive: 0.195 | inactive: 0.063 | inactive: -0.021 | – | – | – | inactive: -0.057 | inactive: -0.219 | – | –
VCPIP1 (UniProt Q96JH7) | inactive: -0.148 | – | inactive: -0.68 | – | inactive: 0.151 | – | – | – | – | –
UNK (UniProt Q9C0B0) | inactive: 0.021 | inactive: 0.075 | – | inactive: -0.114 | inactive: -0.016 | inactive: -0.012 | inactive: -0.174 | – | inactive: -0.038 | inactive: 0.118
UNC13A (UniProt Q9UPW8) | inactive: -0.113 | – | – | – | – | – | – | – | – | inactive: -0.017
UBXN8 (UniProt O00124) | inactive: 0.054 | – | inactive: -0.094 | inactive: 0.161 | inactive: 0.026 | inactive: -0.101 | – | inactive: -0.193 | – | –
USP12 (UniProt O75317) | – | – | – | inactive: -0.101 | inactive: 0.003 | inactive: -0.134 | – | inactive: -0.037 | inactive: 0.045 | inactive: -0.098
USP54 (UniProt Q70EL1) | – | – | – | – | inactive: -0.069 | inactive: -0.021 | – | – | inactive: -0.044 | inactive: -0.142
UQCC3 (UniProt Q6UW78) | – | – | inactive: 0.126 | inactive: 0.084 | inactive: 0.209 | – | – | – | – | –
ULBP1 (UniProt Q9BZM6) | inactive: 0.188 | – | inactive: 0.192 | inactive: 0.156 | – | inactive: 0.014 | – | inactive: 0.011 | – | –
UNG (UniProt P13051) | inactive: -0.04 | – | inactive: -0.143 | inactive: -0.023 | inactive: -0.181 | inactive: -0.065 | – | – | inactive: 0.045 | inactive: -0.124
UBN2 (UniProt Q6ZU65) | – | inactive: 0.008 | – | inactive: 0.016 | – | – | inactive: -0.148 | – | – | –
ULBP2 (UniProt Q9BZM5) | inactive: 0.01 | – | inactive: 0.08 | inactive: 0.312 | – | – | – | inactive: -0.194 | – | inactive: 0.168
USP4 (UniProt Q13107) | – | inactive: -0.01 | – | – | – | inactive: -0.023 | inactive: 0.465 | – | inactive: -0.058 | –
UQCR11 (UniProt O14957) | – | inactive: -0.068 | – | – | inactive: 0.215 | – | inactive: -0.056 | inactive: 0.107 | – | –
USP11 (UniProt P51784) | inactive: -0.02 | – | inactive: -0.315 | inactive: 0.456 | inactive: 0.012 | inactive: 0.028 | – | inactive: -0.155 | inactive: -0.015 | –
UGP2 (UniProt C9JWG0) | inactive: 0.088 | inactive: 0.038 | – | – | – | – | inactive: 0.283 | – | – | –
USB1 (UniProt Q9BQ65) | – | – | – | inactive: -0.079 | inactive: -0.25 | – | – | – | – | inactive: -0.018
UPP1 (UniProt Q16831) | – | inactive: -0.144 | – | – | – | – | inactive: -0.116 | – | – | inactive: -0.059
UBQLN1 isoform 2 (UniProt Q9UMX0) | – | – | – | – | – | inactive: 0.005 | – | – | inactive: 0.154 | –

Whole records, quoted from the list. Order of values: log2 fold change [1]	log2 fold change [2]	log2 fold change [3]	log2 fold change [4]	log2 fold change [5]	log2 fold change [6]	log2 fold change [7]	log2 fold change [8]	log2 fold change [9]	log2 fold change [10]
VCPIP1 (UniProt Q96JH7) as listed: inactive: -0.148	–	inactive: -0.68	–	inactive: 0.151	–	–	–	–	–
USP13 (UniProt Q92995) as listed: inactive: 0.086	inactive: -0.004	–	inactive: 0.108	–	inactive: 0.039	inactive: 0.009	inactive: 0.196	inactive: -0.015	inactive: 0.007
